Data taken from PubChem BioAssay AID2417 (National Center for Advancing Translational Sciences (NCATS), 2010).
In all, about 140,000 compounds went through this assay and about 4,300 (3.1%) were called active. This list was built around the results that the source calls inconclusive (neither active nor inactive); the mix of calls is not that of the screen.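 Rule for the calls: active = readout at or below -70, meaning at least 70% loss of cells showing the perinucleolar compartment, a nuclear body marking cancer cells; inconclusive = readout between -30 and a set limit; inactive = the rest.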

Assay: High Content Assay for Compounds that inhibit the Assembly of the Perinucleolar Compartment;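 note: plate controls were DMSO wells for no effect and camptothecin positive control wells for full effect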
Details: PC3M PTB-GFP, PNC prevalence imaging, 16 h; at 10 µM; stronger effect = lower value
Procedure, shortened: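 Compounds are pinned in duplicate onto adhered PC3M cells stably expressing GFP-tagged PTB and incubated 16 h at 37 C. Cells are then fixed, nuclei stained with Hoechst, and PNC-positive cells counted.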

| Compound | activity change (PNC), negative = inhibition |
| --- | --- |
| CCn1c(CNc2ccc(F)cc2)nnc1SCC(=O)OC1CCCCC1 | active: -114% |
| COc1ccc(NS(=O)(=O)c2cccc(NC(=O)CCC(=O)c3ccc(Cl)cc3)c2)cc1 | inconclusive: -35.9% |
| Cc1ccc2c(c1)CCCN2C(=O)c1ccco1 | inconclusive: -41.7% |
| N#CC1(Cc2ccccc2)c2ccccc2C=CN1C(=O)c1ccccc1 (stereo unspecified) | inconclusive: -47% |
| COc1ccc(C)cc1-n1nnnc1SCC(=O)NC(=O)NCc1ccco1 | active: -81% |
| CC1(C)NC(=O)N(CCOCCOc2cccc(Oc3ccccc3)c2)C1=O | inactive: -0.958% |
| O=C(CSc1nnc(Cn2nnc3ccccc32)o1)Nc1ccc(Cl)cc1 | inconclusive: -46.5% |
| CCOC(=O)c1cnc(SCC(=O)Nc2cc(OC)cc(OC)c2)nc1N | inconclusive: -47.9% |
| Cc1cc(C)cc(OCC(=O)N/N=C/c2ccncc2)c1 | inconclusive: -32.3% |
| COC(=O)c1c(NC(=O)CCCC(=O)O)sc2c1CCC2 | inconclusive: -47.5% |
| Cc1ccc2occ(/C=N/O)c(=O)c2c1 | inactive: 12% |
| Cc1cc(Cl)c(S(=O)(=O)NCc2ccccc2)cc1OCC(N)=O | active: -113% |
| Cc1cc(F)ccc1NCC(=O)Nc1ccc(Br)cc1C | inconclusive: -57.9% |
| O=c1[nH]nc(Cc2ccc(Cl)cc2Cl)c2ccccc12 | inactive: -9.06% |
| CN1CCN(c2nc(-c3ccccc3)c3cc(Cl)ccc3n2)CC1 | inconclusive: -67% |
| CCN(CC)c1ccc(/C=c2/sc3nnc(-c4ccccc4C)n3c2=O)cc1 | inactive: -26.3% |
| C1CCC(CNc2c3c(nc4nnnn24)CCCC3)CC1 | inconclusive: -42.2% |
| CCNc1c2c3c(cccc3n(C)c1=O)C(=O)c1ccccc1-2 | inconclusive: -49% |
| CCOC(=O)C1CCN(C(=O)COc2ccc(Cl)cc2C)CC1 | active: -86.8% |
| CCOC(=O)c1cc2n(n1)C(C(F)(F)F)CC(C)N2 (stereo unspecified) | inconclusive: -58.6% |
| COc1cc(-c2nc(-c3ccncc3)no2)cc(OC)c1OC | inconclusive: -68.8% |
| O=S1(=O)CC(O)C(N2CCCCC2)C1 (stereo unspecified) | inactive: 4.46% |
| S=C(NCc1ccc(Cl)cc1)Nc1ccccc1 | inactive: -2.44% |

| Compound | activity change (PNC), negative = inhibition |
| --- | --- |
| O=C(/C=C/c1ccc(Cl)cc1)c1cccnc1 | inactive: -0.633% |
| COc1ccccc1CNC(=O)C(NS(=O)(=O)c1ccc2c(c1)oc(=O)n2C)C(C)C (stereo unspecified) | inconclusive: -47.8% |
| COc1ccccc1N(C(=O)c1cncc(Br)c1)c1nc(-c2ccc(C)cc2)cs1 | inconclusive: -36.1% |
| Oc1cccc(/C=N/Nc2ncnc3c2ncn3Cc2ccccc2)c1 | inactive: -24.6% |
| O=C(NCc1ccc(OC(F)(F)F)cc1)C1CC(c2c(Cl)cccc2Cl)=NO1 (stereo unspecified) | inconclusive: -34.8% |
| C=CCn1c(SCc2c(C(=O)OC)sc(N)c2C(=O)OC)nnc1-c1ccc(Cl)cc1 | inactive: 7.94% |
| CCOC(=O)c1c(NC(=O)CN2C(=O)NC3(CCCCC3C)C2=O)sc(C)c1C (stereo unspecified) | inconclusive: -37.2% |
| Cc1cccc(NC(=S)N(CCCN2CCOCC2)Cc2ccccn2)c1 | inconclusive: -53.8% |
| CCc1c(C)nc2ncnn2c1NCc1cccs1 | inconclusive: -50.1% |
| O=C(Cn1c(NCCCO)nc2ccccc21)c1ccc(Br)cc1 | inconclusive: -65.3% |
| COCCNC(=S)N/N=C(\C)c1cccc([N+](=O)[O-])c1 | inconclusive: -32.9% |
| Clc1ccc(-c2nc3ccccn3c2CN2CCOCC2)cc1 | inconclusive: -34.5% |
| CCn1c(O)c(C=Nc2ccccc2)n(-c2ccccc2)c1=S | inactive: 15.6% |
| COc1ccccc1NC(=O)CSc1nnc(-c2ccncc2)n1CC1CCCO1 (stereo unspecified) | inconclusive: -49.1% |
| CC(=O)c1ccc2cccc3c2c1N=CN3C | inconclusive: -41.8% |
| CCCCCn1c(CN2CCN(C(=O)OCC)CC2)nc2c1c(=O)[nH]c(=O)n2C | inconclusive: -30.4% |
| COC(C)(C)c1cc(C(C)(C)C)nc(N)n1 | inconclusive: -49.8% |
| COC(=O)c1ccccc1NC(=O)COc1ccc(S(=O)(=O)N2CCCC2)cc1C | inconclusive: -30.5% |
| CCOC(=O)c1cc2c(=O)n3ccccc3nc2n(C(C)C)c1=NC(=O)c1c(-c2c(F)cccc2Cl)noc1C | inconclusive: -78.6% |
| Cc1cc2cc3c(cc2nc1SCc1ccccn1)OCCO3 | inconclusive: -44.5% |
| CCC1CCCCN1S(=O)(=O)c1ccc(C(=O)Nc2nnc(-c3cccs3)o2)cc1 (stereo unspecified) | inactive: -18.2% |
| COCC(=O)Nc1nc2ccccc2s1 | inactive: 42.1% |
| COCCCN(C(=S)Nc1c(C)cc(C)cc1C)C(C)c1ccncc1 (stereo unspecified) | active: -82.2% |

Of the compounds above, two have a furan ring, fused or not:

| Compound | activity change (PNC), negative = inhibition |
| --- | --- |
| Cc1ccc2c(c1)CCCN2C(=O)c1ccco1 | inconclusive: -41.7% |
| COc1ccc(C)cc1-n1nnnc1SCC(=O)NC(=O)NCc1ccco1 | active: -81% |
